Record: PubChem BioAssay AID1259308 (NCATS, 2017)
This is one part, drawn at random, of about 59,000 reagents. About 1,510 of them (2.6%) count as active. 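Calls use total luciferase alone and ignore viability, so some active siRNAs may act by altering cell number.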

Aim: 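Genes whose loss raises luciferase production in HEK293 cells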 (primary screen)
System: human HEK293 embryonic kidney cells stably expressing firefly luciferase (HEK-CMV-Luc2-Hygro)
Knock-down reagent: single siRNA against human genes, 0.8 pmol siRNA per well
Time to read-out: 72 h
Measured: 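Luciferase light (ONE-Glo) measured on one replicate plate set and viability (CellTiter-Glo) on the other, scaled to a negative control siRNA, with robust z-scores and luciferase per cell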
Scale: total luciferase, z-score and total luciferase, % of control: higher = more reporter protein produced; luciferase per cell, z-score: higher = more reporter output per viable cell; viable cells, % of control: higher = more viable cells
Hit rule: 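Active when the median/MAD z-score for overall luciferase is greater than 3; a gene was taken forward for validation with new siRNAs if at least two of its three siRNAs passed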
Meaning of the calls: active = raised luciferase; inactive = no rise

target,PubChem SID,"total luciferase, z-score","total luciferase, % of control","luciferase per cell, z-score","viable cells, % of control",Call
CYRIB (CYFIP related Rac1 interactor B),SID160741025,2.34,128,1.01,110,inactive
CYRIB (CYFIP related Rac1 interactor B),SID160741026,1.63,114,1.49,86.3,inactive
CYRIB (CYFIP related Rac1 interactor B),SID160741027,-1.45,53.1,-0.988,76.9,inactive
MAN2B2 (mannosidase alpha class 2B member 2),SID160736009,-0.986,62.3,-0.921,88.7,inactive
MAN2B2 (mannosidase alpha class 2B member 2),SID160736010,-1.81,45.8,-0.564,59.4,inactive
MAN2B2 (mannosidase alpha class 2B member 2),SID160736011,1.46,111,0.592,106,inactive
KRT2 (keratin 2),SID160776377,-0.367,74.6,-0.808,103,inactive
KRT2 (keratin 2),SID160776378,1.4,110,0.628,104,inactive
KRT2 (keratin 2),SID160776379,0.635,94.5,0.786,85.9,inactive
HOMER1 (homer scaffold protein 1),SID160722257,2.48,131,1.73,92.9,inactive
HOMER1 (homer scaffold protein 1),SID160722258,-0.451,72.9,-0.492,92.8,inactive
HOMER1 (homer scaffold protein 1),SID160722259,-0.227,77.4,0.656,72.7,inactive
CEP164 (centrosomal protein 164),SID160732916,-1.02,61.7,-0.973,89,inactive
CEP164 (centrosomal protein 164),SID160732926,0.968,101,0.491,99.3,inactive
CEP164 (centrosomal protein 164),SID160732937,1.09,104,0.908,91.1,inactive
ARSI (arylsulfatase family member I),SID160764356,0.133,84.5,-0.0767,96.4,inactive
ARSI (arylsulfatase family member I),SID160764357,-0.245,77,0.129,83.2,inactive
ARSI (arylsulfatase family member I),SID160764358,-0.226,77.4,-0.432,96.9,inactive
NEK3 (NIMA related kinase 3),SID160777959,-1.28,56.4,-0.704,75.8,inactive
NEK3 (NIMA related kinase 3),SID160777960,-0.644,69.1,-0.358,84.8,inactive
NEK3 (NIMA related kinase 3),SID160777961,1.74,117,2.11,74.7,inactive
CFL1 (cofilin 1),SID160742077,-0.626,69.4,0.108,75.4,inactive
CFL1 (cofilin 1),SID160742088,-1.5,52.1,-1.41,84.3,inactive
CFL1 (cofilin 1),SID160742099,2.29,127,1.28,102,inactive
RPL38 (ribosomal protein L38),SID160716108,-2.02,41.8,-0.536,53.7,inactive
RPL38 (ribosomal protein L38),SID160724037,-2.23,37.4,-0.743,50.9,inactive
RPL38 (ribosomal protein L38),SID160733715,-2.84,25.3,-2.75,58.4,inactive
C16orf54 (chromosome 16 open reading frame 54),SID160732947,0.369,89.2,-0.254,107,inactive
C16orf54 (chromosome 16 open reading frame 54),SID160732949,-0.987,62.3,-1.97,117,inactive
C16orf54 (chromosome 16 open reading frame 54),SID160763075,0.955,101,1.41,77.8,inactive
CHAC2 (ChaC glutathione specific gamma-glutamylcyclotransferase 2),SID160768269,0.409,90,0.135,97.1,inactive
CHAC2 (ChaC glutathione specific gamma-glutamylcyclotransferase 2),SID160768270,1.97,121,1.04,103,inactive
CHAC2 (ChaC glutathione specific gamma-glutamylcyclotransferase 2),SID160768271,0.428,90.4,0.334,92.5,inactive
LYZL4 (lysozyme like 4),SID160757050,-1.15,59.1,-0.977,85.4,inactive
LYZL4 (lysozyme like 4),SID160757051,0.521,92.2,1.23,74.6,inactive
LYZL4 (lysozyme like 4),SID160757052,2.12,124,2.06,80.6,inactive
IL4I1 (interleukin 4 induced 1),SID160762640,-0.47,72.5,-0.304,87.8,inactive
IL4I1 (interleukin 4 induced 1),SID160762641,-0.487,72.2,-0.801,99.6,inactive
IL4I1 (interleukin 4 induced 1),SID160762642,-0.446,73,-0.48,92.6,inactive

3 entries from above, reformatted:
{"target": "CHAC2 (ChaC glutathione specific gamma-glutamylcyclotransferase 2)", "PubChem SID": "SID160768271", "total luciferase, z-score": 0.428, "total luciferase, % of control": 90.4, "luciferase per cell, z-score": 0.334, "viable cells, % of control": 92.5, "Call": "inactive"}
{"target": "LYZL4 (lysozyme like 4)", "PubChem SID": "SID160757050", "total luciferase, z-score": -1.15, "total luciferase, % of control": 59.1, "luciferase per cell, z-score": -0.977, "viable cells, % of control": 85.4, "Call": "inactive"}
{"target": "LYZL4 (lysozyme like 4)", "PubChem SID": "SID160757051", "total luciferase, z-score": 0.521, "total luciferase, % of control": 92.2, "luciferase per cell, z-score": 1.23, "viable cells, % of control": 74.6, "Call": "inactive"}
